Laboratory results taken from the supplement of paper PMC7661543.
Differences between knockout arms are mostly noise.

Tests used:
Experiment in all cases: relative cell number vs DMSO control (72 h) (% of DMSO); higher = less growth inhibition (more cells)
BT-20 = system: BT-20
Procedure: (§1)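 QMAP-Seq: a pool of 5 breast cancer cell lines (ZR-75-1, SKBR3, HCC-38, MDA-MB-231, BT-20), each carrying 12 doxycycline-inducible Cas9 sgRNA perturbations (11 knockouts plus non-targeting sgNT), was treated with compounds for 72 h at four 10-fold doses (10 nM-10 uM or 1 nM-1 uM range). Barcodes were amplified and sequenced, and cell number was interpolated from 293T spike-in standard curves. The result is expressed as % of the median of DMSO wells. Two biological replicates.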

SKBR3 = system: SKBR3
Procedure: as §1

ZR-75-1 = system: ZR-75-1
Procedure: as §1

C=CC(=O)Nc1cc2c(Nc3ccc(F)c(Cl)c3)ncnc2cc1OCCCN1CCOCC1 [Canertinib]
relative cell number
Conditions	BT-20	SKBR3	ZR-75-1
sgRNA knockout: sgATF3, 10 nM	89.4	108	127
sgRNA knockout: sgATF3, 100 nM	68.6	65.6	82.6
sgRNA knockout: sgATF3, 1000 nM	89.2	38.8	85.5
sgRNA knockout: sgATF3, 10000 nM	33	21.9	37.5
sgRNA knockout: sgATF4, 10 nM	92	98.6	66.9
sgRNA knockout: sgATF4, 100 nM	86.4	83	99.5
sgRNA knockout: sgATF4, 1000 nM	75.9	39.1	61.8
sgRNA knockout: sgATF4, 10000 nM	30.7	20.3	55
sgRNA knockout: sgATF6, 10 nM	86.6	98.6	107
sgRNA knockout: sgATF6, 100 nM	60.7	86.3	74.8
sgRNA knockout: sgATF6, 1000 nM	77	42.7	73.4
sgRNA knockout: sgATF6, 10000 nM	38	20	25.5
sgRNA knockout: sgATG7, 10 nM	91	88.8	93.1
sgRNA knockout: sgATG7, 100 nM	78.1	55.9	85.9
sgRNA knockout: sgATG7, 1000 nM	74.4	45.5	67.9
sgRNA knockout: sgATG7, 10000 nM	39.5	23.5	30.6
sgRNA knockout: sgERN1, 10 nM	80.2	89	91.3
sgRNA knockout: sgERN1, 100 nM	71.2	65.9	78.2
sgRNA knockout: sgERN1, 1000 nM	70.8	46.8	76.6
sgRNA knockout: sgERN1, 10000 nM	36.3	27.8	39.1
sgRNA knockout: sgHSF1, 10 nM	89.6	91.4	–
sgRNA knockout: sgHSF1, 100 nM	73.6	77.6	–
sgRNA knockout: sgHSF1, 1000 nM	77.2	35.8	–
sgRNA knockout: sgHSF1, 10000 nM	37.6	29	–
sgRNA knockout: sgHSF2, 10 nM	76.9	77.2	104
sgRNA knockout: sgHSF2, 100 nM	75.7	63.3	81.9
sgRNA knockout: sgHSF2, 1000 nM	78.2	41.8	71.9
sgRNA knockout: sgHSF2, 10000 nM	34.2	25.7	37.4
sgRNA knockout: sgKEAP1, 10 nM	84.2	89	–
sgRNA knockout: sgKEAP1, 100 nM	90.25	63	–
sgRNA knockout: sgKEAP1, 1000 nM	73.6	43	–
sgRNA knockout: sgKEAP1, 10000 nM	33.9	21.2	–
sgRNA knockout: sgNFE2L2, 10 nM	74	84.5	99.3
sgRNA knockout: sgNFE2L2, 100 nM	74.4	85.5	58.8
sgRNA knockout: sgNFE2L2, 1000 nM	71.4	40.4	78.2
sgRNA knockout: sgNFE2L2, 10000 nM	36.8	18.8	36.6
sgRNA knockout: sgSLC35F2, 10 nM	83.6	89	51.9
sgRNA knockout: sgSLC35F2, 100 nM	81.6	68.6	24.2
sgRNA knockout: sgSLC35F2, 1000 nM	72.5	39	50.7
sgRNA knockout: sgSLC35F2, 10000 nM	41.2	29.3	36.3
sgRNA knockout: sgXBP1, 10 nM	86.7	97	99.5
sgRNA knockout: sgXBP1, 100 nM	97.1	77	98.4
sgRNA knockout: sgXBP1, 1000 nM	79	33.8	73.3
sgRNA knockout: sgXBP1, 10000 nM	35.7	27.5	35.4

Cc1cc(C2CCCCC2)n(O)c(=O)c1 [Ciclopirox]
relative cell number
Conditions	BT-20	SKBR3	ZR-75-1
sgRNA knockout: sgATF3, 10 nM	92.1	120	108
sgRNA knockout: sgATF3, 100 nM	81.7	85	85.3
sgRNA knockout: sgATF3, 1000 nM	61.4	72.29	66
sgRNA knockout: sgATF3, 10000 nM	23	19.3	22.5
sgRNA knockout: sgATF4, 10 nM	97.3	89	108
sgRNA knockout: sgATF4, 100 nM	108	93.3	67.1
sgRNA knockout: sgATF4, 1000 nM	56.1	62.73	62.6
sgRNA knockout: sgATF4, 10000 nM	26.3	18.1	16.9
sgRNA knockout: sgATF6, 10 nM	106	77.2	120
sgRNA knockout: sgATF6, 100 nM	94.2	87.6	68.9
sgRNA knockout: sgATF6, 1000 nM	64.3	58.4	34.2
sgRNA knockout: sgATF6, 10000 nM	27	15.5	17.5
sgRNA knockout: sgATG7, 10 nM	99.8	99.6	104
sgRNA knockout: sgATG7, 100 nM	92.6	90.6	89.34
sgRNA knockout: sgATG7, 1000 nM	55.1	68	43.6
sgRNA knockout: sgATG7, 10000 nM	27.2	26.7	20.7
sgRNA knockout: sgERN1, 10 nM	82.4	113	97.87
sgRNA knockout: sgERN1, 100 nM	89.3	82.2	83.9
sgRNA knockout: sgERN1, 1000 nM	68.1	73.7	41
sgRNA knockout: sgERN1, 10000 nM	25.8	18.8	23.9
sgRNA knockout: sgHSF1, 10 nM	86.9	88.8	–
sgRNA knockout: sgHSF1, 100 nM	105	82.3	–
sgRNA knockout: sgHSF1, 1000 nM	56.2	73.7	–
sgRNA knockout: sgHSF1, 10000 nM	32.2	19.7	–
sgRNA knockout: sgHSF2, 10 nM	79.9	71.9	92.8
sgRNA knockout: sgHSF2, 100 nM	102	91.2	112
sgRNA knockout: sgHSF2, 1000 nM	52.9	66.7	50.1
sgRNA knockout: sgHSF2, 10000 nM	21.6	25	28.2
sgRNA knockout: sgKEAP1, 10 nM	90.6	80.2	–
sgRNA knockout: sgKEAP1, 100 nM	90.7	102	–
sgRNA knockout: sgKEAP1, 1000 nM	59	51	–
sgRNA knockout: sgKEAP1, 10000 nM	26.93	23.5	–
sgRNA knockout: sgNFE2L2, 10 nM	94.4	96.7	113
sgRNA knockout: sgNFE2L2, 100 nM	85.7	92.7	118
sgRNA knockout: sgNFE2L2, 1000 nM	62.6	59.7	69.3
sgRNA knockout: sgNFE2L2, 10000 nM	27.5	20.4	29.1
sgRNA knockout: sgSLC35F2, 10 nM	95.5	89.099	96.7
sgRNA knockout: sgSLC35F2, 100 nM	97.2	88.8	72.6
sgRNA knockout: sgSLC35F2, 1000 nM	45.8	62.1	59.2
sgRNA knockout: sgSLC35F2, 10000 nM	33.8	14.7	24.9
sgRNA knockout: sgXBP1, 10 nM	90	87.1	86.02
sgRNA knockout: sgXBP1, 100 nM	108.9	83.8	101
sgRNA knockout: sgXBP1, 1000 nM	65.2	73.6	51
sgRNA knockout: sgXBP1, 10000 nM	25.8	20.4	27.7
